# ± gives the standard deviation. The entries are a selection whose mix differs from that of the whole data set. Many of these values have a large error.
# Test system: MILI (PIWIL2) piRISC loaded with piRNA #2 (26 nt)
# Experiment: pre-steady-state target cleavage rate (min^-1); MIWI and MILI are mouse PIWI proteins and EfPiwi is from a freshwater sponge; tags in brackets are library labels; higher = faster piRNA-guided slicing of the target
# Details: guide: piRNA #2 5'p-UUAGGUAACCCAGUAGAUCCAGAGGA; auxiliary factor: 500 nM mouse GTSF1
# Summary of the method: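 Cleave-'n-Seq: a transcribed, DNA-blocked target RNA library (0.1 nM) was mixed with 1 nM active affinity-purified piRISC carrying one synthetic guide, with or without 500 nM GTSF1 partner protein, in HEPES–potassium acetate buffer at 33 °C for 0–8 or 0–960 min. Uncleaved targets were sequenced and normalised to depth and to weakly complementary targets. Three trials were pooled, and k3 was capped at 0.0001 min^-1. The pre-steady-state cleavage rate came from a burst-and-steady-state fit.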
row,Sequence,pre-steady-state target cleavage rate
1,CUUAUCCUCUGGAUCUACUGCCAUACCUAA,0.000513 ± 0.013
2,CUUAAGGAGACCAUCUACUGGGUUGCCUAA,0.000483 ± 0.02
3,CUUAAGGAGAGGAUCUACUGAGGUUACCUAA,0.000483 ± 0.0088
4,CUUAAGGAGUGGUUCUACUGGGAUACCUAA,0.00288 ± 0.0041
5,CUUAAGCUGUGGAUCUACUCGGUUACCUAA,0.000408 ± 0.02
6,CUUAAGGAGAGGAACUACUGGGUUAGCUAA,0.000592 ± 0.024
7,CUUAAGGACUGGAUCUACUGGGAUACCUAA,0.00837 ± 0.0099
8,CUUAAGGACUGGAUCUACUGAGUUACCUAA,0.00767 ± 0.0096
9,CUUAACCUCUGGAUCUAGUGGCUUACCUAA,0.000208 ± 0.039
10,CUUAAGGAGUGGAUCUUCUGGGUUACCUUA,0.014 ± 0.007
11,CUUAAGGAGACGAUCUACUGGGUGACCUAA,0.000127 ± 0.064
12,CUUAAGGAGAGGAUCUACCGGGUUACCUAA,0.00177 ± 0.0039
13,CUUAAGGAGACCAUCAACUGGGUUAGCUAA,0.000125 ± 0.077
14,CUUAUCCUCUGGUUCUAGUGGGUUACCUAA,0.134 ± 0.028
15,CUUAAGGAGACGUUCUUCUGGGUUACCUAA,0.00138 ± 0.0073
16,CUUAAGGAGUGGUUGUACUGGGUUACCUAA,0.00375 ± 0.0042
17,CUUAAGCUCUGGAUCUACUGUGGUUACCUAA,0.000562 ± 0.018
18,CUUAAGGAGACCAUCUACUGGGUUACGUAA,0.000417 ± 0.011
19,CUUAAGGAGACCUAGAUCUGGGUUACGCUAA,0.00012 ± 0.093
20,CUUAAGCUCUGGAUCUAGUGGGAUACCUAA,0.00824 ± 0.0045

row,Sequence,pre-steady-state target cleavage rate
1,CUUAAGGAGAGGAUCUACUGGGUUACGCUAA,0.00227 ± 0.0043
2,CUUAAGGAGACCAUCUACUGGGUUACCUGAA,0.000499 ± 0.014
3,CUUAAGGAGACCUACUACUGGGUUAACCUAA,0.000191 ± 0.025
4,CUUAAGGAGUGCAUCUAGUGGGUUACCUAA,0.00288 ± 0.0051
5,CUUAAGGAGACGAUCUACGUGGGUUACCUAA,0.000525 ± 0.021
6,CUUAAGGUCUGGAUCUACUGGGUACCUAA,0.00139 ± 0.0065
7,CUUAAGGAGACCUACUACCUGGGUUACCUAA,0.000335 ± 0.028
8,CUUAUCCUCUGGAUCUACUGGGUUACCUCA,0.0902 ± 0.018
9,CUUAAGGAGACCAACUACUGGGUAACCUAA,0.000317 ± 0.03
10,CUUAAGGUCUGGAUCUACUAGGGUUACCUAA,0.00365 ± 0.0041
11,CUUAUCCUCUGGAUCUACUGGGUUACCUAC [g2:g26:cont:t1C],0.105 ± 0.014
12,CUUAAGGAGACCUACUACUGGGUUACCUCAA,0.000245 ± 0.027
13,CUUAAGGAGACCUACUACUGGGUUACCUGAA,0.00026 ± 0.026
14,CUUAUCCUCUGGAGUCUACUGGGUUACCUAA,0.175 ± 0.039
15,CUUAACCUCUGGAACUACUGGGUUUCCUAA,0.311 ± 0.14
16,CUUAAGGAGACCUACUACUGGAUUACCUAA,0.000143 ± 0.04
17,CUUAAGGAGUGGAUCUACUGGGUUCCCUAA,0.00212 ± 0.0051
18,CUUAAGGAGACGAUCGUACUGGGUUACCUAA,0.000895 ± 0.012
19,CUUAAGGUCUGGAACUUCUGGGUUACCUAA,0.0253 ± 0.015

# Fetched one by one from the list above (two):
row,Sequence,pre-steady-state target cleavage rate
17,CUUAAGGAGUGGAUCUACUGGGUUCCCUAA,0.00212 ± 0.0051
4,CUUAAGGAGUGCAUCUAGUGGGUUACCUAA,0.00288 ± 0.0051
